# Paper PMC8497506
# For some assays here: The comparison behind a weaker result is the experiment's own reference, which may not be listed here. For some assays here: The exact form of at least one protein or probe is not confirmed. For some assays here: At least one verdict rests on a figure or table, not on a statement of the authors.
# Experiments:
# Experiment in all cases: plate binding assay (ELONA)
# Myoglobin = Myoglobin (UniProt P68082); details: 10 mM HEPES, 5 mM MgCl2, 5 mM KCl, pH 7.4, 0.1% Tween-20, 1% sheared salmon sperm DNA, 300 uM dextran sulfate, 60 min, temperature not stated, commercial protein
# his-tagged thrombin = details: streptavidin-HRP detection; 5' biotin; 10 mM HEPES, 5 mM MgCl2, 5 mM KCl, pH 7.4, 0.1% Tween-20, 1% sheared salmon sperm DNA, 300 uM dextran sulfate; 60 min; temperature not stated; protein details: His tag; label: streptavidin conjugates or HRP; single-stranded DNA
# Her2-his = Her2-his (UniProt P04626); details: B1 probe binding twofold higher than this control; handle 3' iSp9-DBCO coupled to azide-PEG; 10 mM HEPES, 5 mM MgCl2, 5 mM KCl, pH 7.4, 0.1% Tween-20, 1% sheared salmon sperm DNA, 300 uM dextran sulfate; 60 min; temperature not stated; commercial protein; protein details: His tag; label: fluorescent FluoSphere
sequence,measurement,setting,value
CAAGCAGAAGACGGCATACGAGATCATGCTTCCCCAGGGAGATGGTTTGCCGGTGGGCAGGTTTAGGGTCTGCTCGGGATTGCGGAGGAACATGCGTCGCAAACGTGTAGATCTCGGTGGTCGCCGTATCATT / ATCTCGTATGCCGTCTTCTGCTTG [P7-B1 annealed to DBCO-P7 handle on Qdot 655],binding result,"Myoglobin; little off-target binding, handle 3' iSp9-DBCO coupled to azide-PEG, label: Qdot 655",binds more weakly
CATGCTTCCCCAGGGAGATGGTTTGCCGGTGGGCAGGTTTAGGGTCTGCTCGGGATTGCGGAGGAACATGCGTCGCAAAC [Biotin-B1],binding result,his-tagged thrombin,binds
CAAGCAGAAGACGGCATACGAGATTCAAGTGGTCATGTACTAGTCAA / ATCTCGTATGCCGTCTTCTGCTTG,binding result,Her2-his,binds more weakly
CAAGCAGAAGACGGCATACGAGATCATGCTTCCCCAGGGAGATGGTTTGCCGGTGGGCAGGTTTAGGGTCTGCTCGGGATTGCGGAGGAACATGCGTCGCAAACGTGTAGATCTCGGTGGTCGCCGTATCATT [DBCO-B1 directly conjugated to nanoparticle],binding result,"Myoglobin; lower than on-target, 5' DBCO-C7 coupled to azide-PEG, label: fluorescent FluoSphere, single-stranded DNA",binds more weakly
CAAGCAGAAGACGGCATACGAGATCATGCTTCCCCAGGGAGATGGTTTGCCGGTGGGCAGGTTTAGGGTCTGCTCGGGATTGCGGAGGAACATGCGTCGCAAACGTGTAGATCTCGGTGGTCGCCGTATCATT / ATCTCGTATGCCGTCTTCTGCTTG [P7-B1 annealed to DBCO-P7 handle on nanoparticle],binding result,"Myoglobin; off-target, little non-specific binding, handle 3' iSp9-DBCO coupled to azide-PEG, label: fluorescent FluoSphere",binds more weakly
